Experimental data: PubChem BioAssay AID743454 (Peter MacCallum Cancer Centre, 2014)
Purpose: 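Search for knock-downs that restore vorinostat killing in resistant colon cancer cells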 (primary screen). Cells: human HCT116-VR colon cancer cells, selected for vorinostat resistance. Reagents: siRNA pool against human genes, 40 nM siRNA pool. Time to read-out: vorinostat for 24 h, read-out about 72 h after transfection. Challenge: vorinostat at 2.5 µM final. Measurement: 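Two measures, CellTiter-Fluor viability and luminescent caspase 3/7 activity, each as fold change against same-plate mock wells, mean of duplicates, then screen-wide robust z-score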. Scale: viability robust z-score: higher = more viable cells than screen typical; caspase robust z-score: higher = more caspase 3/7 activity than screen typical. Rule for the call: 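Hits are knock-downs in viability class RV1/RV2 or caspase class CA1/CA2, excluding ones that killed cells in the no-drug cell-count arm; hits then retested with single siRNAs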.
The whole screen tested about 18,000 reagents; shown is a random part of them. 450 of them (2.5%) count as active. 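Single biological run; no consistent viability z cut-off exists, so the class columns, not z-scores, define the calls.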

gene	viability hit class	caspase hit class	viability robust z-score	caspase robust z-score	Outcome
NLRP14 (NLR family pyrin domain containing 14)	no change	no change	0.47	-0.52	inactive
NFATC1 (nuclear factor of activated T cells 1)	no change	no change	-0.28	-0.42	inactive
SLX1B (structure-specific endonuclease subunit SLX1B)	no change	no change	-0.43	-0.99	inactive
FBXL5 (F-box and leucine rich repeat protein 5)	no change	no change	0.46	-0.01	inactive
LDHAL6B (lactate dehydrogenase A like 6B)	no change	no change	-1.48	-0.88	inactive
TIGD6 (tigger transposable element derived 6)	no change	no change	0.58	-0.86	inactive
LRRC39 (leucine rich repeat containing 39)	no change	no change	-0.04	1.18	inactive
PTPN2 (protein tyrosine phosphatase non-receptor type 2)	no change	no change	0.13	-0.73	inactive
SLU7 (spliceosome associated SLU7)	RV2 (reduced viability)	no change	-3.13	0.94	active
LINGO1 (leucine rich repeat and Ig domain containing 1)	no change	no change	-1.01	-0.28	inactive
ELP5 (elongator acetyltransferase complex subunit 5)	no change	no change	-0.76	-0.6	inactive
GARIN1B (golgi associated RAB2 interactor 1B)	no change	no change	1.46	-0.52	inactive
MKX (mohawk homeobox)	no change	no change	1.19	0.98	inactive

Records listed so far whose target name begins with N or n (2):
gene	viability hit class	caspase hit class	viability robust z-score	caspase robust z-score	Outcome
NLRP14 (NLR family pyrin domain containing 14)	no change	no change	0.47	-0.52	inactive
NFATC1 (nuclear factor of activated T cells 1)	no change	no change	-0.28	-0.42	inactive

The listing continues.
gene	viability hit class	caspase hit class	viability robust z-score	caspase robust z-score	Outcome
ZNF826P (zinc finger protein 826, pseudogene)	no change	no change	1.51	-0.19	inactive
SYT14P1 (synaptotagmin 14 pseudogene 1)	no change	no change	0.09	0.04	inactive
GRM1 (glutamate metabotropic receptor 1)	no change	no change	-0.43	0.92	inactive
PRM1 (protamine 1)	no change	no change	0.02	4.35	inactive
COL4A5 (collagen type IV alpha 5 chain)	no change	no change	0.83	-0.3	inactive
NAP1L4 (nucleosome assembly protein 1 like 4)	no change	no change	-0.64	0.44	inactive
ZIC2 (Zic family zinc finger 2)	no change	no change	1	-1.25	inactive
TOGARAM2 (TOG array regulator of axonemal microtubules 2)	no change	no change	-0.66	0.11	inactive
YKT6 (YKT6 vesicular SNARE protein)	no change	no change	-0.76	0.72	inactive
PRKCZ (protein kinase C zeta)	no change	no change	-1.4	-0.99	inactive
